Reference: the supplement of paper PMC7666118
The list shows a part of the results.

Chains of the proteins cited; added tags and fusions are not shown. Lines headed by an entry give the natural chain unless they say otherwise; changes in a name come on top.
UniProt Q96SU4: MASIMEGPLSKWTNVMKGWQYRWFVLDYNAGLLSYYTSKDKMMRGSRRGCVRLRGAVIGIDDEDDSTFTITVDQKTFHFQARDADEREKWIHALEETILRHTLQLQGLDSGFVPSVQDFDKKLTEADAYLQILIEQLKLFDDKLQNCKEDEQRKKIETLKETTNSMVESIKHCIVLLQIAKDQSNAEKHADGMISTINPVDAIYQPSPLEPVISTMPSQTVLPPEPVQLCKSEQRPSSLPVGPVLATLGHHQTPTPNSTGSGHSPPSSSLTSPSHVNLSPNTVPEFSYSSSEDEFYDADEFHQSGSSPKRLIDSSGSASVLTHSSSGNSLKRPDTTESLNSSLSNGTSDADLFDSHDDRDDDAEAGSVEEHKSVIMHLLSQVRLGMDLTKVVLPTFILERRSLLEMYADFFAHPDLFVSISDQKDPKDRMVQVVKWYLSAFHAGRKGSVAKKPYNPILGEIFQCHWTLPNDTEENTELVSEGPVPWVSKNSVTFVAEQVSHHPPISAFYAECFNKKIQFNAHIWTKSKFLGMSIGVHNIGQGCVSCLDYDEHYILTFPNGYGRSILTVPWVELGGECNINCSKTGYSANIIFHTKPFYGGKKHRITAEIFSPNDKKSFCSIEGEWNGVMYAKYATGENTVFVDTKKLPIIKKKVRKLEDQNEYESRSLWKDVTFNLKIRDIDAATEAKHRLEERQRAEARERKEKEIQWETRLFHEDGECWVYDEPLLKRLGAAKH
UniProt P11940, whole entry: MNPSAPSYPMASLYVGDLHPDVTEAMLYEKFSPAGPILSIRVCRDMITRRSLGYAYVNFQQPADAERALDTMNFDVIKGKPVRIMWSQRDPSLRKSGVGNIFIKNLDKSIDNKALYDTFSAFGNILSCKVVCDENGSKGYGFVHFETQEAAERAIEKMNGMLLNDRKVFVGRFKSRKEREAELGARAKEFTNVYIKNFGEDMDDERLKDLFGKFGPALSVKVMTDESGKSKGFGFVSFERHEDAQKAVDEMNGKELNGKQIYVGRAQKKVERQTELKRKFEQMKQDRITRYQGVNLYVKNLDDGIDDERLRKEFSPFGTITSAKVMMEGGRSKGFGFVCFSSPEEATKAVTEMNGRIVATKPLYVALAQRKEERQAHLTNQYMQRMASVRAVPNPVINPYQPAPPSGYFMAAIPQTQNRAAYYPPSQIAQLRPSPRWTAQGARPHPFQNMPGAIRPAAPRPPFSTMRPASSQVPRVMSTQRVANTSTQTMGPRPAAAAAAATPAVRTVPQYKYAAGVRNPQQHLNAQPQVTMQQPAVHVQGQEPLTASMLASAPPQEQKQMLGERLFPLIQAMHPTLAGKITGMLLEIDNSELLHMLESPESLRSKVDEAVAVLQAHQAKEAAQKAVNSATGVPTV
UniProt Q8TEM1: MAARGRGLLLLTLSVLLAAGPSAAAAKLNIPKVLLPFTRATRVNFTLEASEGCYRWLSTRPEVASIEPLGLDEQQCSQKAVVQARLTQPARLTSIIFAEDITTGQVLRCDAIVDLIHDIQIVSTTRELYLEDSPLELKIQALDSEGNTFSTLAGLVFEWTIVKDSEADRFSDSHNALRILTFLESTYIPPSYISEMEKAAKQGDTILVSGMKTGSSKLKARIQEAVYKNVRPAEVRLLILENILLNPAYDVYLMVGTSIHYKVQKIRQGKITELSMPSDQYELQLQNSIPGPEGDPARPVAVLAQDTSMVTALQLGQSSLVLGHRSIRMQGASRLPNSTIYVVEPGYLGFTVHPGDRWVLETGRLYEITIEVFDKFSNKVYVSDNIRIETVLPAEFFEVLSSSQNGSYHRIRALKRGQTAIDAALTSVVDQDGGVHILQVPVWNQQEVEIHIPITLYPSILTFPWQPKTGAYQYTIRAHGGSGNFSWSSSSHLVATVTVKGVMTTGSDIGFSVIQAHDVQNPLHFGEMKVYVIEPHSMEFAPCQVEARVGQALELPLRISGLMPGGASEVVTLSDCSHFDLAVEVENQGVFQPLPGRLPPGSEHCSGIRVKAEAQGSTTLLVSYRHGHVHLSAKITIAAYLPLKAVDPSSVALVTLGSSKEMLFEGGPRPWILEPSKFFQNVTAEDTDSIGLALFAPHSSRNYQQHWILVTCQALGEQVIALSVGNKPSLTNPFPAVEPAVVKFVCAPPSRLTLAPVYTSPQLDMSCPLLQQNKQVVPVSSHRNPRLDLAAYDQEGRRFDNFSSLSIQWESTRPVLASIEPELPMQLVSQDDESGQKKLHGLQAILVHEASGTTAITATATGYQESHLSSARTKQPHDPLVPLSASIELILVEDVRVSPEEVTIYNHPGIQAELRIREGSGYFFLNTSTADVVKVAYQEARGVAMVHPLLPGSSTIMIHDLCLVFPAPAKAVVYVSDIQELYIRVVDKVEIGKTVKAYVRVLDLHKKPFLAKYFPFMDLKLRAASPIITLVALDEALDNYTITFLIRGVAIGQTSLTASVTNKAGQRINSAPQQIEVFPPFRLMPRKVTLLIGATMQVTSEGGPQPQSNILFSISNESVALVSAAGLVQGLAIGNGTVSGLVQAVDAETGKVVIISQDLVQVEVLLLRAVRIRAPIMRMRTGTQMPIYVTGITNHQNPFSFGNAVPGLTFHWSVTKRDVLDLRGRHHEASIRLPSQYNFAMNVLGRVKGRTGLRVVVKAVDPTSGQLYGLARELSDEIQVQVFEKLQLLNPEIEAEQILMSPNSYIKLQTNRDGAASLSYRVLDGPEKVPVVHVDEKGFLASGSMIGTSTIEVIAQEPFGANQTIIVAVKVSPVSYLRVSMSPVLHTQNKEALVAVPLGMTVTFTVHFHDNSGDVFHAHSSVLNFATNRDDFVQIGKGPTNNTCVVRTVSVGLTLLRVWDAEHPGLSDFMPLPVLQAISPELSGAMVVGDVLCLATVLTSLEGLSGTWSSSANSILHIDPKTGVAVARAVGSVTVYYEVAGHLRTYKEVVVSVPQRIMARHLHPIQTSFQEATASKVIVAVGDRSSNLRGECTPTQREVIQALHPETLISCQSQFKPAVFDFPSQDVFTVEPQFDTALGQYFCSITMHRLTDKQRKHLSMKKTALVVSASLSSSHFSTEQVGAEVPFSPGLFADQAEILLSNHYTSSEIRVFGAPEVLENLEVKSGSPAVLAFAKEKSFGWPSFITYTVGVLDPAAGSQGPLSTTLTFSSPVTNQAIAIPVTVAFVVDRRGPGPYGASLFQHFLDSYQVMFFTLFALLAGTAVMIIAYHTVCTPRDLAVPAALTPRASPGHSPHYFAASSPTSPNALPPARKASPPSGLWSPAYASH
UniProt Q8N543: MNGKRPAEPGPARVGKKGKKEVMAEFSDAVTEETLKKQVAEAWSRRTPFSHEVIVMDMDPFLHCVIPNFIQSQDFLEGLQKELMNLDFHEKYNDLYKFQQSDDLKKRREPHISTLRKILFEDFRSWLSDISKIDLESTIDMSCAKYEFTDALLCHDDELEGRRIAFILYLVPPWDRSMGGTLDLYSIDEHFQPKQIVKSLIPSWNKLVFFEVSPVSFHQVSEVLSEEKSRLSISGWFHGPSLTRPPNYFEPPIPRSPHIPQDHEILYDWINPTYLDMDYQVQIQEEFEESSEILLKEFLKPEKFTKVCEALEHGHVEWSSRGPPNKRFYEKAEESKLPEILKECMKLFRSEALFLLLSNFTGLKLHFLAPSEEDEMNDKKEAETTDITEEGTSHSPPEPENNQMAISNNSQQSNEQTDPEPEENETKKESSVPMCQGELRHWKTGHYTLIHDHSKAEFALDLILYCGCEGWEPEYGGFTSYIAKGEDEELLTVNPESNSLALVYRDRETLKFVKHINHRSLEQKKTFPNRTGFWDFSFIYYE
UniProt Q7L3T8: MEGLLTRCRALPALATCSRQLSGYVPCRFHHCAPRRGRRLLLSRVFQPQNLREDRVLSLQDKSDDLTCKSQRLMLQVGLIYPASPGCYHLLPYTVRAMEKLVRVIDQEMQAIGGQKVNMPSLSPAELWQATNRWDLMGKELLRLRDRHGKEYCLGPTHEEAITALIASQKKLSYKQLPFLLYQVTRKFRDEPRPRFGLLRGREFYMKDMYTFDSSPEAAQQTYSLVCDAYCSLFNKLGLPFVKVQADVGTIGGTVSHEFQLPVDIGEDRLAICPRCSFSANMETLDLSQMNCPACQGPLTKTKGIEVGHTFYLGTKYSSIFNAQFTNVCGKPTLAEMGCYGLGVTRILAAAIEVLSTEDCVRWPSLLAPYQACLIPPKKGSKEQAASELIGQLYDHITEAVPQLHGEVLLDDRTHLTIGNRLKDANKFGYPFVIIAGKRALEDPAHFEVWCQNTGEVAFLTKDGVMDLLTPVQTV
UniProt Q8WW12: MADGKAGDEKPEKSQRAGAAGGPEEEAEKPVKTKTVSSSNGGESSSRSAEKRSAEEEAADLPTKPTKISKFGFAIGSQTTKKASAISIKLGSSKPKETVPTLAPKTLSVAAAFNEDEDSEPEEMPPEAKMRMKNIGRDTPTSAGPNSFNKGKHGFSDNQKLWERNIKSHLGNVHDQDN
UniProt Q92968: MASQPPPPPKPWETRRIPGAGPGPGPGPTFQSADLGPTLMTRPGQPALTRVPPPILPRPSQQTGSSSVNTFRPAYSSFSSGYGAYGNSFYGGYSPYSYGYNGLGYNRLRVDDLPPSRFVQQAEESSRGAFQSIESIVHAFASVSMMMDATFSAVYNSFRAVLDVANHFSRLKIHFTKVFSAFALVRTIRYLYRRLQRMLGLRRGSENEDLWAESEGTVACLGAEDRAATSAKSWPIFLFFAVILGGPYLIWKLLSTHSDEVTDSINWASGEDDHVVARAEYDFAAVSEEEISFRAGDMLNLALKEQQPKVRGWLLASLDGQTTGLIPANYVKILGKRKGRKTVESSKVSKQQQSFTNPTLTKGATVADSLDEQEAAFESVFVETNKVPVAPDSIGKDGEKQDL
UniProt Q96JY6: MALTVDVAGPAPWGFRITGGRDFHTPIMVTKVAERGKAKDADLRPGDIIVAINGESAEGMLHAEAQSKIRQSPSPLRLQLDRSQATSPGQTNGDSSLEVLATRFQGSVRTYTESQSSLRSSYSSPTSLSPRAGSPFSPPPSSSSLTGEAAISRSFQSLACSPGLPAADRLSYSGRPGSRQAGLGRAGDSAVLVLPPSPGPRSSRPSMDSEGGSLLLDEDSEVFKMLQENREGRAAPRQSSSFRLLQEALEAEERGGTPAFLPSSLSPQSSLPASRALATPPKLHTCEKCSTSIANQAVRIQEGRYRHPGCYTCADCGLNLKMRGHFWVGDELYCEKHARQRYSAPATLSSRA
UniProt O43252: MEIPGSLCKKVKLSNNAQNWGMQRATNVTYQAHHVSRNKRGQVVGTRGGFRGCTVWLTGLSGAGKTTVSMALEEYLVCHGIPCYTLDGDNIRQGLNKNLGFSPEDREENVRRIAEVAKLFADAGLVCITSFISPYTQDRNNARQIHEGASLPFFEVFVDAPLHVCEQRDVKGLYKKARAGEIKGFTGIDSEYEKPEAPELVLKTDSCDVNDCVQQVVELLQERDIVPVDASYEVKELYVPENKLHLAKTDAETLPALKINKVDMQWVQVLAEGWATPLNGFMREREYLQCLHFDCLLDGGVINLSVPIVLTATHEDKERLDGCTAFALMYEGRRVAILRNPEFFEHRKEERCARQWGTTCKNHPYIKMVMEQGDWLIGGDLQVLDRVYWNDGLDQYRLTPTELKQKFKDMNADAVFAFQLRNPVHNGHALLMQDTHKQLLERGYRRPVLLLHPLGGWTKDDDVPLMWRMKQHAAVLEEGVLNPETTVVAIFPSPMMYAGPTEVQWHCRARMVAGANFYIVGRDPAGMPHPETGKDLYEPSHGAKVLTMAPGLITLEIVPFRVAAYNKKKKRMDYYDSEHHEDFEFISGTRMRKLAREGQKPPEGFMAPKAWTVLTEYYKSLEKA
UniProt Q8WV07: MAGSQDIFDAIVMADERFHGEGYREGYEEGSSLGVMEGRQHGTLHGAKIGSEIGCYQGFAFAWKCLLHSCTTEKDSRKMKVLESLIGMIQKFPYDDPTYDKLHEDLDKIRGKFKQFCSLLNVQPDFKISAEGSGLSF
UniProt Q9HBI1: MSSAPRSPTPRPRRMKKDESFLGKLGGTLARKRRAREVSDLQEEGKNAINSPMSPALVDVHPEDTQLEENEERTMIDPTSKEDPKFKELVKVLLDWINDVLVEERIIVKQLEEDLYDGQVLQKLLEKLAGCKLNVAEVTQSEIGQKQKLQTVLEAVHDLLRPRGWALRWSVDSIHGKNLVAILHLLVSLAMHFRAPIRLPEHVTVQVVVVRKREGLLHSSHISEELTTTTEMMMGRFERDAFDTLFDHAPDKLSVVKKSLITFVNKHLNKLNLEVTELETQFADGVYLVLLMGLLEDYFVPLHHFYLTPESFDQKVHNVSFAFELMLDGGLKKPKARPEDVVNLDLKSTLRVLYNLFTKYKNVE
UniProt Q9NX40: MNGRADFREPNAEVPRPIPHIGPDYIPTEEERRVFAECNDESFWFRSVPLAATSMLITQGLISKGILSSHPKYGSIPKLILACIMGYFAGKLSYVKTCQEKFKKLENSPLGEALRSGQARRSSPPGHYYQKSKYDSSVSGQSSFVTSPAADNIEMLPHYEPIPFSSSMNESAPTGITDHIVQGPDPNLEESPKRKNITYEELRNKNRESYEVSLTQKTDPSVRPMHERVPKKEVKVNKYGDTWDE

Compound: COc1ccc(Cn2ccc3ccc(C(=O)NO)cc32)cc1
Experiment: dose-dependent thermal stabilisation call (2D-TPP, DLPTP, 10% FDR) (binary (1 = stabilised)); higher = stabilised by the compound
Conditions: system: HL-60 intact cells; concentration range 0.04-10 µM

Row | Target | dose-dependent thermal stabilisation call
1 | NT5DC3 (UniProt Q86UY8) | inactive: 0
2 | NUDT22 (UniProt Q9BRQ3) | inactive: 0
3 | OSBPL9 (UniProt Q96SU4) | inactive: 0
4 | PACSIN2 (UniProt Q9UNF0) | inactive: 0
5 | PABPC1 (UniProt P11940) | inactive: 0
6 | PDCD4 (UniProt Q53EL6) | inactive: 0
7 | NUP210 (UniProt Q8TEM1) | inactive: 0
8 | NUP50 (UniProt Q9UKX7) | inactive: 0
9 | NUP107 (UniProt P57740) | inactive: 0
10 | ORC5L (UniProt O43913) | inactive: 0
11 | OGFOD1 (UniProt Q8N543) | inactive: 0
12 | NUBPL (UniProt Q8TB37) | inactive: 0
13 | PARS2 (UniProt Q7L3T8) | inactive: 0
14 | PEPD (UniProt P12955) | inactive: 0
15 | NRM (UniProt Q8IXM6) | inactive: 0
16 | P2RY8 (UniProt Q86VZ1) | inactive: 0
17 | PCNP (UniProt Q8WW12) | inactive: 0
18 | NSUN2 (UniProt Q08J23) | inactive: 0
19 | NUB1 (UniProt Q9Y5A7) | inactive: 0

Single entries from the list.
dose-dependent thermal stabilisation call, PACSIN2 (UniProt Q9UNF0) is entered as inactive: 0
dose-dependent thermal stabilisation call, NUB1 (UniProt Q9Y5A7) is entered as inactive: 0

(further entries)

Row | Target | dose-dependent thermal stabilisation call
20 | PEX13 (UniProt Q92968) | inactive: 0
21 | ODF2 (UniProt Q5BJF6) | inactive: 0
22 | NSBP1 (UniProt P82970) | inactive: 0
23 | PAF1 (UniProt Q8N7H5) | inactive: 0
24 | PDIA4 (UniProt P13667) | inactive: 0
25 | PDLIM2 (UniProt Q96JY6) | inactive: 0
26 | PAPSS1 (UniProt O43252) | inactive: 0
27 | ORAOV1 (UniProt Q8WV07) | inactive: 0
28 | PDP2 (UniProt Q9P2J9) | inactive: 0
29 | PARVB (UniProt Q9HBI1) | inactive: 0
30 | OGDH (UniProt Q02218) | inactive: 0
31 | NT5C3 (UniProt Q9H0P0) | inactive: 0
32 | NXF3 (UniProt Q9H4D5) | inactive: 0
33 | OGFOD2 (UniProt Q6N063) | inactive: 0
34 | OCIAD1 (UniProt Q9NX40) | inactive: 0
35 | PDCD10 (UniProt Q9BUL8) | inactive: 0
36 | OPA3 (UniProt Q9H6K4) | inactive: 0
37 | NUSAP1 (UniProt Q9BXS6) | inactive: 0
